The source of these data is the supplement of paper PMC10849652.

Amino acid sequences for entries named in this document (tags omitted). A change or cut given only in a name is not applied to a line headed by its entry.
UniProt Q92925, whole entry, looked up: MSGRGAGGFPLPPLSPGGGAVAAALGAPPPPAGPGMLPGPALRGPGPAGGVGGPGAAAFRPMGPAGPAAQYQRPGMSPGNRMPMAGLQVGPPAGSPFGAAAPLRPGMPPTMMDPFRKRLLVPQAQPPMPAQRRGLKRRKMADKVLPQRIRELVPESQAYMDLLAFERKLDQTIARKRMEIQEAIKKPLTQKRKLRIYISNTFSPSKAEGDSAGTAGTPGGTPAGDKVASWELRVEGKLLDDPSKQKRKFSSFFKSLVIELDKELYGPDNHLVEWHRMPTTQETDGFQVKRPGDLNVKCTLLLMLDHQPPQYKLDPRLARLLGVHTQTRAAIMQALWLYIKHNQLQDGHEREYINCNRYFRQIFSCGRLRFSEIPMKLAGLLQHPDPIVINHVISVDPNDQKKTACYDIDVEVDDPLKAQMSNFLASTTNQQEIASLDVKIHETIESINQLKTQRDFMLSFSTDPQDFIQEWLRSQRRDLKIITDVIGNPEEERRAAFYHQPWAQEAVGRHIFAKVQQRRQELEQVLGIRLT
UniProt O95149, whole entry, looked up: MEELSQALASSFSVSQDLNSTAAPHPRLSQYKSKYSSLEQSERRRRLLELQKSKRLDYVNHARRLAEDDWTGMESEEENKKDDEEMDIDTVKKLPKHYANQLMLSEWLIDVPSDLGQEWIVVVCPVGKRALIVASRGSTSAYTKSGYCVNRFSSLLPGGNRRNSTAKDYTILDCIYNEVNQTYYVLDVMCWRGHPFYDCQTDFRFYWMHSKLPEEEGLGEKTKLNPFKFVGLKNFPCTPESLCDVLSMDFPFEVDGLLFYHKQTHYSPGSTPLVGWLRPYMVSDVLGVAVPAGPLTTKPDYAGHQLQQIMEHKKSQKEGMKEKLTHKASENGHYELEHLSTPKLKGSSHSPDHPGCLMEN
UniProt Q96KF7: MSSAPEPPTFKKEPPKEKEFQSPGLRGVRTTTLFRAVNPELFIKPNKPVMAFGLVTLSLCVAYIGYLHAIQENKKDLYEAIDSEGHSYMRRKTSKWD
UniProt Q6IEG0: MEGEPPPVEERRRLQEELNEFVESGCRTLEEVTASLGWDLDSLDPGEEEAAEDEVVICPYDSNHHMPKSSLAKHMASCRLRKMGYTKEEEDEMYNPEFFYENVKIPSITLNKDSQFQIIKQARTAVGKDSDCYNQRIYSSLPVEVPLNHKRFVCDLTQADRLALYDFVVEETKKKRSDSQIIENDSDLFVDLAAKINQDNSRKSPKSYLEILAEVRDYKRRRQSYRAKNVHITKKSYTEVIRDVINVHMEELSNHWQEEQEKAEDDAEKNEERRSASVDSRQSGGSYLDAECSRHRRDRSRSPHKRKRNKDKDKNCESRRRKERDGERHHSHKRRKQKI
UniProt Q8N5G0: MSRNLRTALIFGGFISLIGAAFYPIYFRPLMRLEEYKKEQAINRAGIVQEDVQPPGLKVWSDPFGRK
UniProt Q9Y5X2: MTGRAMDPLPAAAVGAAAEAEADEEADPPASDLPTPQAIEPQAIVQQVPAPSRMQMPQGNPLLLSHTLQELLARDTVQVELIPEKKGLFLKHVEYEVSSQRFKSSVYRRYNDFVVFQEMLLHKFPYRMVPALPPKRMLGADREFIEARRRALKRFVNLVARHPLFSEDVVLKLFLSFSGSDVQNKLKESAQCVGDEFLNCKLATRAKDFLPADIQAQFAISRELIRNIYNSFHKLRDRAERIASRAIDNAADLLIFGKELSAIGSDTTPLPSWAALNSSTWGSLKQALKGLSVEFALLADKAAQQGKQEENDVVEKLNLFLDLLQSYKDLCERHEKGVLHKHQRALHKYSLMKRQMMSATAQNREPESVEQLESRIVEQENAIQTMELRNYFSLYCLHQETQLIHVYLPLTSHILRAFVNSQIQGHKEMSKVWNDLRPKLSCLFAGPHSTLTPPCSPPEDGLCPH
UniProt P62308, whole entry, looked up: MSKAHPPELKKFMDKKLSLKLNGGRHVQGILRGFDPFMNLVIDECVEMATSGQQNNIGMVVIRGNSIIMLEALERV
UniProt O60749: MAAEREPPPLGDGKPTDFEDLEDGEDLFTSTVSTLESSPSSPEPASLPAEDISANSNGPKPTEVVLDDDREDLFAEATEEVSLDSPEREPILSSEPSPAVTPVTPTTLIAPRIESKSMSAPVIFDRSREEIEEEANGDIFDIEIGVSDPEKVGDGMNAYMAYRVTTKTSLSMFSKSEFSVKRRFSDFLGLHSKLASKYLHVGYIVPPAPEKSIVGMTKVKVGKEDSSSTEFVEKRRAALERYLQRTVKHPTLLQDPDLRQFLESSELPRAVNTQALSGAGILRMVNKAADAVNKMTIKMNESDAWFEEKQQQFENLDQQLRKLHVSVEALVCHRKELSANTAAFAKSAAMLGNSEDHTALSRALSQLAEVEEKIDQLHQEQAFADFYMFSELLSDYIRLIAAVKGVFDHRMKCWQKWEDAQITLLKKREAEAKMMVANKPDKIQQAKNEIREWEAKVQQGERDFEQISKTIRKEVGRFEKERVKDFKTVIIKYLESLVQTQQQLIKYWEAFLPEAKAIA
UniProt Q00796: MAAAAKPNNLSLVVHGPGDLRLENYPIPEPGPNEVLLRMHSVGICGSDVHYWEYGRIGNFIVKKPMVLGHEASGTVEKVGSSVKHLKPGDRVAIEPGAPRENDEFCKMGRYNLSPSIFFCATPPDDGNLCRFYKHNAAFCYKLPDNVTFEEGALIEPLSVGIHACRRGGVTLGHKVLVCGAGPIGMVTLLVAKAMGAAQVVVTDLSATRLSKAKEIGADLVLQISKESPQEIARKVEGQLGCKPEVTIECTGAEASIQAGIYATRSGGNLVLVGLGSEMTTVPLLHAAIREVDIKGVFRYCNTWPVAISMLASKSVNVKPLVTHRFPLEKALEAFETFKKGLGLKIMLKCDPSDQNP
UniProt O95347, whole entry, looked up: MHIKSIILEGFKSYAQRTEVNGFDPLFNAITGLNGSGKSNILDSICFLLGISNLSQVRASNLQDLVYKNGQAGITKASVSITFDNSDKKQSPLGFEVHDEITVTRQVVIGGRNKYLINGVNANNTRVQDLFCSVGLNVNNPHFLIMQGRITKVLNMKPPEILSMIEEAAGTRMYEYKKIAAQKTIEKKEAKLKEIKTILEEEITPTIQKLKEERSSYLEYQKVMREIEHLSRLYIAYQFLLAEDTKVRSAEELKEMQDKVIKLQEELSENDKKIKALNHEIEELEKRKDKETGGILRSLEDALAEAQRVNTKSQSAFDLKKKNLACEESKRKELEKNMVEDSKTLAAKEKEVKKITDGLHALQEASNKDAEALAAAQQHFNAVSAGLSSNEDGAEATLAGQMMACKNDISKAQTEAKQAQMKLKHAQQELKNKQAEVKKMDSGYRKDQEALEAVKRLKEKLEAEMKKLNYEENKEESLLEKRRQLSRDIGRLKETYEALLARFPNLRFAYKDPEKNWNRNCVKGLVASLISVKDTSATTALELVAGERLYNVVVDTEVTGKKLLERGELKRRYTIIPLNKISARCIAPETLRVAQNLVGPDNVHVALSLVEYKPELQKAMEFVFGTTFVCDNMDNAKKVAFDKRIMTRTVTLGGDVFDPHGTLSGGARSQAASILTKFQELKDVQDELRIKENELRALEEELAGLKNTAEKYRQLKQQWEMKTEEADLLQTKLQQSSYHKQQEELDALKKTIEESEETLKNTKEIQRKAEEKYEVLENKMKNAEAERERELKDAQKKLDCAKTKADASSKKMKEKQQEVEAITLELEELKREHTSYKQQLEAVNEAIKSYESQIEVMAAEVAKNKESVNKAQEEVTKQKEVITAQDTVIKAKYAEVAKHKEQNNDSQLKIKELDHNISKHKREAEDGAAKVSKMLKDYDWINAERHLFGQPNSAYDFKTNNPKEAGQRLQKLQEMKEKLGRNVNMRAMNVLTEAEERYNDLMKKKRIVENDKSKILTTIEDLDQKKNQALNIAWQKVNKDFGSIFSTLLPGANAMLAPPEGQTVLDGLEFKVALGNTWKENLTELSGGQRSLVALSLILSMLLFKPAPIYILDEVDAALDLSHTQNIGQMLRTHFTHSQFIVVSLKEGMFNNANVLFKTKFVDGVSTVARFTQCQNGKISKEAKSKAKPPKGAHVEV
UniProt Q8ND04: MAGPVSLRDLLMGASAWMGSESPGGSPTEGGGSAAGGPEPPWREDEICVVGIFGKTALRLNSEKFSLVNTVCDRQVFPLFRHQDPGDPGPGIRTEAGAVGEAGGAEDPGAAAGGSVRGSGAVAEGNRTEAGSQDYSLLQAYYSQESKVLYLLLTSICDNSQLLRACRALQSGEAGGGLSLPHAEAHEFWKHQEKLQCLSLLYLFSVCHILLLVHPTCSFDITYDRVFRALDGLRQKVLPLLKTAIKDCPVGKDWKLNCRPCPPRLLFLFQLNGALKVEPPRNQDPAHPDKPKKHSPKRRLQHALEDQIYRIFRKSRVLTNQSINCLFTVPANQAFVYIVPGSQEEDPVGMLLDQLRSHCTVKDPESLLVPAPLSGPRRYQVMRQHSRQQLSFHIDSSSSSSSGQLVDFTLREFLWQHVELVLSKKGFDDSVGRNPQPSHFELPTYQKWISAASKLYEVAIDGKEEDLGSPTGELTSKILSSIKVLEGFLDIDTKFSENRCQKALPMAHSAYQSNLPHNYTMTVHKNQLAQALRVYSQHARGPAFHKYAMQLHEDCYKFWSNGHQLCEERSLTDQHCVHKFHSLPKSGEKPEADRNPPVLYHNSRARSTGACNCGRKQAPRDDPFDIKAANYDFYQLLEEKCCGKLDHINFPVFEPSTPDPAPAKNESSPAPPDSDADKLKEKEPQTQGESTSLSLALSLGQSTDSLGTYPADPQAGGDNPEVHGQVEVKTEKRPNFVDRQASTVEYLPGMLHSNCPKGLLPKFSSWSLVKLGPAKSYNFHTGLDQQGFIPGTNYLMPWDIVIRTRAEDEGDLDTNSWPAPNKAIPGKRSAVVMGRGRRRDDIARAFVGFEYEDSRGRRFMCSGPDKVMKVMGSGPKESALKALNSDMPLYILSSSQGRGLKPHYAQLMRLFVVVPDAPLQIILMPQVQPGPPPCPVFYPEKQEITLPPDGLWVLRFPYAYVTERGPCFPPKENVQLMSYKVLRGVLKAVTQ
UniProt P52788: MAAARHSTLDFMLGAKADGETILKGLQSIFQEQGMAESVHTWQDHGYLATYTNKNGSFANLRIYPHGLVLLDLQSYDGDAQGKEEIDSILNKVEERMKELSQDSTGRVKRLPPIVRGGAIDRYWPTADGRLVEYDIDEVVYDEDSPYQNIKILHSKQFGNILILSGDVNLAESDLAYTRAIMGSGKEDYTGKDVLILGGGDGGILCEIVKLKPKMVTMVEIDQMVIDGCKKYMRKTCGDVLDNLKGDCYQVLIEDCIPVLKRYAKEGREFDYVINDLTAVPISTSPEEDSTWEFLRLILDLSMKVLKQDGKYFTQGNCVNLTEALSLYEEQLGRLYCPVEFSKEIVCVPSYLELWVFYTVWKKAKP
UniProt P62316, whole entry, looked up: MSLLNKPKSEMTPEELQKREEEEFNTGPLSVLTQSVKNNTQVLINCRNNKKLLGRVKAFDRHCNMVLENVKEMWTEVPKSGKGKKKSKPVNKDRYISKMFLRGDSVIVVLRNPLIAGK
UniProt Q8IY18: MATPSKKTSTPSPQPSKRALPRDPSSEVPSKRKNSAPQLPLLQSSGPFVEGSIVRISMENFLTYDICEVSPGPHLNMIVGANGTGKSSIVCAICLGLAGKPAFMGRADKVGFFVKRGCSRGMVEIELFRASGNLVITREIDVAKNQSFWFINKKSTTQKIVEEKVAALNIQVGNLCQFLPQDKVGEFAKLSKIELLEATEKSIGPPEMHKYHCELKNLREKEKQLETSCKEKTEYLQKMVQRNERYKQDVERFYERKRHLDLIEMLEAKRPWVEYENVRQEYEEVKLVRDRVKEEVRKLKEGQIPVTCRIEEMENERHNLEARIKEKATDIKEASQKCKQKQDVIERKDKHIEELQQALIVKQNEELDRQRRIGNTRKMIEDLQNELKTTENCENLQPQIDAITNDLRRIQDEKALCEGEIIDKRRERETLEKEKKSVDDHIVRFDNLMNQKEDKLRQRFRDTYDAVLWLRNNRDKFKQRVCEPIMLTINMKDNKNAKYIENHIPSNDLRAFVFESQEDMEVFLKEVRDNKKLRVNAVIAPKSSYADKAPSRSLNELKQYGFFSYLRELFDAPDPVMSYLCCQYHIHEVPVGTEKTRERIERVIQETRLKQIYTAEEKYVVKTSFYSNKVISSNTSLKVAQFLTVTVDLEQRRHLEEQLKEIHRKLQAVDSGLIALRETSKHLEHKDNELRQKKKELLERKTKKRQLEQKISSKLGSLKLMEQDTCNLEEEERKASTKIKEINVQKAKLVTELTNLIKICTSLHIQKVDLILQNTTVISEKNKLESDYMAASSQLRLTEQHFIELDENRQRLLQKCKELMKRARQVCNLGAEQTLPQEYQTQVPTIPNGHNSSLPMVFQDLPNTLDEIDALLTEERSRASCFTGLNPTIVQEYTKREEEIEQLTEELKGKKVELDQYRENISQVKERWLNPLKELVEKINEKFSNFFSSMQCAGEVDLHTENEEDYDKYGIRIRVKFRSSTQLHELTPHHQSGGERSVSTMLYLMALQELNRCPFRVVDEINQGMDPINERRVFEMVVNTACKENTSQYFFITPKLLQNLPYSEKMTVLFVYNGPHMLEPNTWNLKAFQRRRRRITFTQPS

The other results are listed elsewhere or left out.

Compound in this assay: O=C(O)c1ccc2c(c1)nc(Nc1cccc(Cl)c1)c1ccncc12 [silmitasertib]
The experiment in a line: log2 fold change, soluble protein after heating vs DMSO (PISA); higher = thermal stabilisation; K562 lysate, 10 uM; active = over 0.2 and 3.5 SD of the protein, either way, in both replicates (recomputed). Put shortly:
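Soluble protein was defined as the supernatant remaining after 21,000xg for 90 min, following pooling of heated aliquots and adjustment to 0.5% NP-40 at 4°C. Before that, crude K562 extract at 1 mg/mL protein in PBS pH 7.4 with 1 mM MgCl2 was treated with 10 μM compound for 30 min and heated for 3 min across 48°C-58°C. Quantification used TMTpro 16plex LC-MS/MS with channel sums equalised, and values are log-two fold changes in thermal stability relative to solvent controls from duplicates.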
As to SOX7 isoform 2 (UniProt Q9BT81), the log2 fold change is inactive: 0.157. The figure for SMARCD2 (UniProt Q92925) is inactive: 0.032; for SNRNP200 (UniProt O75643) it is inactive: 0.038; for SPARC (UniProt P09486) it is inactive: -0.051. The figure for SNTA1 (UniProt Q13424) is inactive: 0.029; for SNRPB isoform 3 (UniProt P14678) it is inactive: -0.031. The figure for SNX6, A0A0A0MRI2 is inactive: 0.018; for SNUPN (UniProt O95149) it is inactive: 0.142. For SPAG5 (UniProt Q96R06), the log2 fold change was inactive: 0.042.

In the case of SMIM8 (UniProt Q96KF7), the log2 fold change is inactive: -0.022. Under SNRNP48 (UniProt Q6IEG0) stands inactive: -0.095; under SMARCD1 (UniProt Q96GM5), inactive: 0.015; under SNX16 (UniProt P57768), inactive: -0.07. On to SNX9 (UniProt Q9Y5X1), for which the log2 fold change was inactive: 0.014.

For SMIM12 (UniProt Q96EX1), the log2 fold change is inactive: -0.003.

Regarding SMIM20 isoform 2 (UniProt Q8N5G0), the log2 fold change was inactive: -0.288.

With SP4 (UniProt Q02446), the log2 fold change is inactive: -0.133.

Regarding SNX8 (UniProt Q9Y5X2), the log2 fold change is inactive: 0.025. Regarding SMARCC1 (UniProt Q92922), the log2 fold change was inactive: -0.008. Under SOS1 (UniProt Q07889) stands inactive: -0.096; under SOX5 (UniProt P35711), inactive: 0.099. The figure for SNRPG (UniProt P62308) is inactive: -0.039; for SNX2 isoform 2 (UniProt O60749) it is inactive: 0; for SMARCE1 (UniProt Q969G3) it is inactive: 0.019. Under SORD (UniProt Q00796) stands inactive: -0.013.

With SNW1 (UniProt Q13573), the log2 fold change is inactive: -0.003. The figure for SMC2 (UniProt O95347) is inactive: 0.016; for SMG8 isoform 2 (UniProt Q8ND04) it is inactive: 0.015. With SMG5 (UniProt Q9UPR3), the log2 fold change is inactive: -0.024. As to SMS (UniProt P52788), the log2 fold change is inactive: 0.007. Under SNCA (UniProt P37840) stands inactive: -0.235; under SNRPD2 (UniProt P62316), inactive: -0.021.

On to SNAPIN (UniProt O95295), for which the log2 fold change is inactive: -0.014. Under SMC5 (UniProt Q8IY18) stands inactive: -0.024; under SMC1A (UniProt Q14683), inactive: 0.008; under SOAT1 (UniProt P35610), inactive: 0.
